Assay results from patent US20190321455A1.
Results are given in words; binding and its absence hold for the method and conditions named. Binding seen in cells or lysates may run through a third protein. Some entries that bind do so weakly or less than the wild type. Where a sequence is shown, tags or fusion partners need not be part of it.

Chains of the proteins cited; added tags and fusions are not shown.
UniProt Q15366: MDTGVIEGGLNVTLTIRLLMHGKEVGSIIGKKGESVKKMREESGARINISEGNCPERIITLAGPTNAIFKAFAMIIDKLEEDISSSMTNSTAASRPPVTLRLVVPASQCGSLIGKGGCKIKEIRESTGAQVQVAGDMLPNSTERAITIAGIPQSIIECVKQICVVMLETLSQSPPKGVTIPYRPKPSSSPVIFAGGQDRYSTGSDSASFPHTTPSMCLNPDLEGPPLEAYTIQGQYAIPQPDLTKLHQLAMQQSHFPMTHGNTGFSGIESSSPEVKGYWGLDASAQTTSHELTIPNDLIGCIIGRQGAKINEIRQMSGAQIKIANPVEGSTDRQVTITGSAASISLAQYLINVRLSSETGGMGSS

Target: GST-PCBP2 (full-length poly(rC)-binding protein 2 expressed from a plasmid in 293T cells) (UniProt Q15366)
Test: co-IP of EPRS domain constructs with PCBP2 in 293T cells

B1: EPRS N-terminal domain (aa 1-196; GST-like domain and linker region L1), expressed in 293T cells (protein)
chain: MATLSLTVNSGDPPLGALLAVEHVKDDVSISVEEGKENILHVSENVIFTDVNSILRYLARVATTAGLYGSNLMEHTEIDHWLEFSATKLSSCDSFTSTINELNHCLSLRTYLVGNSLSLADLCVWATLKGNAAWQEQLKQKKAPVHVKRWFGFLEAQQAFQSVGTKWDVSTTKARVAPEKKQDVGKFVELPGAEMG
B1 was tested, and the binding was “binds”.
